Measurements: PubChem BioAssay AID624291 (National Center for Advancing Translational Sciences (NCATS), 2012)
Among all 350,000 compounds or so, about 220 (0.063%) were called active. This list was built around the results that the source calls inconclusive (neither active nor inactive); the mix of calls is not that of the screen. Calls come from the whole dose curve; as a rule, active = well fitted activation curve with a large enough effect; inconclusive = small, poorly fitted or top-dose-only effect; inactive = no such curve, though single readings can be large or run the other way. Potencies of inconclusive entries are doubtful fits and often do not repeat.

Assay: qHTS for Activators of Integrin-Mediated Alleviation for Muscular Dystrophy; note: nearly all actives have a fitted effect of over 60% in size;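 for activation: 100% = response of the positive control SU9516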
Details: alpha7betagal myoblasts, beta-gal FDG fluorescence, 48 h; activation: at 38.3 µM (top of the series)
In short: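 Alpha7betagal+/- myoblasts (passage 13) were plated 16-24 hr, then exposed to compounds (1:260 dilution of DMSO stock) for 48 hours at 37C. After MPER lysis, β-galactosidase reporter activity was read as FDG fluorescence (ex 480/em 540) after 30 minutes.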
Potency is the fitted concentration of half-maximal effect.

Potency, inconclusive:
O=c1[nH]c2ccccc2nc1-c1c[nH]c2ccccc12 4.47 µM [activator, full curve, poor fit], CCOC(=O)C1CCN(C(=O)CCCn2c(=O)c3cccn3c3cccnc32)CC1 0.891 µM [activator, full curve, poor fit], NC(=NCCc1ccccc1)NC(=O)c1cc(Cl)ccc1O 1.58 µM [activator, partial curve, poor fit], Nc1cc(S(=O)(=O)N2CCCCC2)ccc1Oc1ccc(Cl)cc1 28.2 µM [activator, single point], COc1ccccc1-c1nc2ccccc2nc1-c1ccccc1 10 µM [activator, partial curve, poor fit], COc1ccccc1N1CCN(C(=O)c2ccc3c(=O)n(Cc4ccc5c(c4)OCO5)c(=O)[nH]c3c2)CC1 1.12 µM [activator, partial curve, poor fit], CCCCc1nnc(NC(=O)CN(C)S(=O)(=O)c2ccc(C)cc2)s1 3.55 µM [activator, single point], COc1ccc(S(=O)(=O)NCC2CCCN(Cc3ccc(O)cc3)C2)cc1 (configuration not stated) 5.01 µM [activator, single point], CNC(=O)c1oc(-c2ccc(Cl)cc2)nc1C 3.55 µM [activator, single point], COc1ccc(OC)c(/C=N\NC(=O)CC(=O)NCCc2ccccc2)c1 3.16 µM [activator, single point], COc1ccc(CC(=O)NNC(=O)[C@@H]2CCCC[C@@H]2C(=O)O)cc1 28.2 µM [activator, single point], CCCN1CCN(C(=O)C2CCCN(c3ncnc4c3nc3n4CCCCC3)C2)CC1 (configuration not stated) 28.2 µM [activator, single point], Cc1cccn2c(=O)c(C=C(C#N)C#N)c(N3CCN(c4ccccc4)CC3)nc12 28.2 µM [activator, single point], O=C(N/N=C1/CC2CCC1C2)c1cc2ccccc2cc1O (configuration not stated) 28.2 µM [activator, single point], COc1ccccc1CC1(C)NC(=O)N(CC(=O)N2CCc3ccccc3C2)C1=O (configuration not stated) 3.55 µM [activator, single point], CCCCC(=O)Nc1cccc(-c2nc3ncccc3o2)c1C 3.98 µM [activator, full curve, poor fit], O=C(Nc1cccc(NC(=O)c2ccccc2Cl)c1)c1ccc(F)cc1 1.12 µM [activator, partial curve, poor fit], COc1cc(NC(=O)C2COc3ccccc3O2)c(OC)cc1Cl (configuration not stated) 1.41 µM [activator, partial curve, poor fit], NS(=O)(=O)c1ccc(CNC(=O)Cc2c(F)cccc2Cl)cc1 2.82 µM [activator, single point], CCC(=O)c1c[nH]c(C(=O)NCc2cccc(C(F)(F)F)c2)c1 1.26 µM [activator, partial curve, poor fit], CSc1nsc(SCC(=O)Nc2ccc(C(C)=O)cc2)n1 5.01 µM [activator, single point], O=C(O)c1ccc(N=C2NC(=O)C(CO)(CO)S2)cc1 5.01 µM [activator, single point], CCN(C(=O)c1cc2cc3ccc(C)cc3nc2o1)c1ccc(OC)cc1 0.501 µM [activator, partial curve, poor fit], COc1ccccc1CC(=O)Nc1ccc(S(=O)(=O)N2CCCCC2)cc1 28.2 µM [activator, single point], CC(Cc1ccccc1)NC(=O)c1cc2ccccc2o1 (configuration not stated) 10 µM [activator, single point], Cc1ccc(S(=O)(=O)N2CCCC2)cc1C(=O)NCc1ccccc1CN1CCCC1 2.51 µM [activator, partial curve, poor fit], O=C1CCCc2ccccc2N1Cc1cccc(F)c1 2.82 µM [activator, partial curve, poor fit], COc1cc(C2NC(=O)NC(C)=C2C(=O)OCC2CCCCC2)ccc1O (configuration not stated) 5.01 µM [activator, single point], Cc1cc(C)nc(N(C#N)S(=O)(=O)c2ccccc2Cl)n1 3.55 µM [activator, partial curve, poor fit]

activation, inactive:
O=C(N/N=C/c1cccc(OC(=O)c2cccc(Br)c2)c1)c1ccncc1 0.732%, COc1ccccc1-c1cc(-c2ccccc2)nc(=O)[nH]1 4.57%, COc1ccc(C(c2c(NC(C)=O)sc3c2CCCC3)N2CCN(CCO)CC2)cc1OC (configuration not stated) 14.4%, C#CCN(C[C@H]1[C@H](OC(=O)NCC2CCCCC2)[C@H](OC(=O)NCC2CCCCC2)C[C@@H](C(=O)OC)[C@H]1C(=O)OC)S(=O)(=O)c1ccc(C)cc1 3.83%, COc1ccc2[nH]c(=O)c(CN(c3ccccc3OC)S(=O)(=O)c3ccccc3)cc2c1 -13.1%, O=C(OC(c1ccccc1)c1nccc2ccccc12)c1cccc([N+](=O)[O-])c1 (configuration not stated) -10.7%, Cc1cc2ccccc2cc1CN1CCOCC1 -3.09%, CCCCC(=O)Nc1ccc(C2C(=O)c3ccccc3C2=O)cc1 36.3%, Cc1ccc(-n2nc3c(c2NC(=O)c2cccs2)CSC3)cc1 -1.33%, COc1ccc(N2CCN(C(CNC(=O)C(=O)NCCC3=CCCCC3)c3ccco3)CC2)cc1 (configuration not stated) -24.3%, CCN(CC)CCN(C(=O)CCS(=O)(=O)c1ccccc1)c1nc2c(C)cc(C)cc2s1 -30.4%, Cc1ccccc1OCC(=O)N/N=C/c1cccc(Oc2ccc([N+](=O)[O-])cc2[N+](=O)[O-])c1 -56.2%, COc1ccc(-c2cc(NCc3ccccn3)n3ncnc3n2)cc1 -16.6%
